Several values for one entry are separate records, joined by “and”; a condition that tells them apart may be missing. Equal entries are not always repeated. The list shows a part of the results. These are further read-outs of the screen, such as a control signal, another cell line or another target. No call is given for them. Most of these compounds were active or inconclusive in the main read-out, so they are no random draw. The note in brackets gives the kind of curve behind each potency; many fits are weak.
Assay: qHTS assay for small molecule antagonists of peroxisome proliferator-activated receptor gamma signaling (AID 588537)
Details: HEK293 PPARg-UAS-bla, beta-lactamase ratio, antagonist mode; measured here: W460 blue channel
Summary of the method: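 PPAR-gamma-UAS-bla HEK293 cells (3000/well, 1% charcoal/dextran-stripped FBS) were preincubated 6-6.5 h at 37 C, given titrated compounds, then stimulated with 50 nM rosiglitazone for 16 h. Beta-lactamase activity was read with CCF4 dye; IC50 came from Hill fits.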

Compound	AC50
c1ccccc1	1260 µM [falling, single point]
CN(C)c1cccc(O)c1	50.1 µM [rising, single point]
CCCN(CCC)C(=O)SCC	70.8 µM [rising, single point]
C=C(C)[C@H]1CC=C(C)C(=O)C1	70.8 µM [rising, single point] and 316 nM [rising, full curve, poor fit]
COc1ccc([N+](=O)[O-])cc1N	50.1 µM [rising, single point] and 3.16 nM [falling, full curve, poor fit]
C[C@@H]1O[C@@H](O[C@@H]2[C@@H](O)[C@H](OCCc3ccc(O)c(O)c3)O[C@H](CO[C@@H]3O[C@H](CO)[C@@H](O)[C@H](O)[C@H]3O)[C@H]2OC(=O)/C=C/c2ccc(O)c(O)c2)[C@H](O)[C@H](O)[C@H]1O	50.1 µM [rising, single point]
NC(=O)Nc1nc2ccccc2[nH]1	50.1 µM [rising, single point]
COc1cccc2sc(N)nc12	0.891 µM [falling, full curve, poor fit]
Cc1ccc(C)o1	50.1 µM [rising, single point]
Cc1ccc([N+](=O)[O-])c(N)c1	70.8 µM [rising, single point]
C=CCOC(=O)COCCC(C)C	50.1 µM [rising, single point]
CCCCCCCCCCCCCCCCCCN	0.0316 µM [falling, full curve, poor fit]
CCCC(O)C(CC)CO (stereo not given)	63.1 µM [rising, single point]
C1CCCNCC1	44.7 µM [rising, single point]
Cc1ccc2ncccc2c1	70.8 µM [rising, single point]
CN(CCO)CC(O)Cn1cnc2c1c(=O)n(C)c(=O)n2C (stereo not given) (tested in a mixture with another compound)	0.00158 µM [falling, full curve, poor fit]
CC(=O)N(CCN(C(C)=O)C(C)=O)C(C)=O	0.00355 µM [falling, full curve, poor fit]
NC(=O)c1ccccc1O	70.8 µM [rising, single point]
CC1(C)CC(OC(=O)CCCCCCCCC(=O)OC2CC(C)(C)NC(C)(C)C2)CC(C)(C)N1	0.0126 µM [falling, full curve, poor fit]
Cc1ccc2cccnc2c1	63.1 µM [rising, single point]

A draw from above in order of length of the SMILES, smallest number first:
Compound	AC50
Cc1ccc2cccnc2c1	63.1 µM [rising, single point]
C=CCOC(=O)COCCC(C)C	50.1 µM [rising, single point]
NC(=O)Nc1nc2ccccc2[nH]1	50.1 µM [rising, single point]

(further entries)

Compound	AC50
c1ccc2c(c1)ccc1ncccc12	63.1 µM [rising, single point]
C1OCOCO1	50.1 µM [rising, single point]
CC(=O)c1nccs1	63.1 µM [rising, single point]
Nc1cc([N+](=O)[O-])ccc1C(=O)O	70.8 µM [rising, single point]
Cc1cc(-c2ccc(N=Nc3cc(S(=O)(=O)O)c4ccccc4c3N)c(C)c2)ccc1N=Nc1cc(S(=O)(=O)O)c2ccccc2c1N	44.7 µM [falling, partial curve]
COC(C)=O	50.1 µM [rising, single point]
CCCOCC(C)OCC(C)O (stereo not given)	50.1 µM [rising, single point]
CCCCCC/C(C=O)=C\c1ccccc1	50.1 µM [rising, single point]
CC(=O)c1cccc([N+](=O)[O-])c1	44.7 µM [rising, single point]
O=C(O)c1ccc2c(c1)C(=O)OC2=O	1.58 µM [falling, full curve, poor fit]
Nc1ccc(-c2ccc(N)c(O)c2)cc1O	35.5 µM [falling, partial curve, poor fit]
CCCCC(CC)CO (stereo not given)	44.7 µM [rising, single point]
c1ccc2n[nH]nc2c1	17.8 µM [falling, partial curve, poor fit]
CCOc1ccc2nc(N)sc2c1	63.1 µM [rising, single point]
O=C(Cl)c1c(Cl)cccc1Cl	63.1 µM [rising, single point]
CCCCC(CC)COC(=O)CCCCC(=O)OCC(CC)CCCC (stereo not given)	0.00447 µM [falling, full curve, poor fit]
ICCc1ccccc1	63.1 µM [rising, single point]
CCO[Si](CCCN)(OCC)OCC	50.1 µM [rising, single point]
C/C=C(/C)C#N	70.8 µM [rising, single point]
O=Cc1cccc(Br)c1	70.8 µM [rising, single point]
